Assay results from patent WO2019186276A2.
No constants are given. Whether binding was seen depends on the method and setting. Some results given as binding are weak or reduced against the parent protein; the word gives no strength.

Sequences of proteins named here, by UniProt entry; tags and fusion partners are left off. A change or cut given only in a name is not applied to a line headed by its entry. A line that says so, or that is headed by a name, gives the form on record, which may keep a tag or linker.
sarcosyl-insoluble tau isolated from human Alzheimer's disease brain tissue (PHF-tau) (P10636, form named): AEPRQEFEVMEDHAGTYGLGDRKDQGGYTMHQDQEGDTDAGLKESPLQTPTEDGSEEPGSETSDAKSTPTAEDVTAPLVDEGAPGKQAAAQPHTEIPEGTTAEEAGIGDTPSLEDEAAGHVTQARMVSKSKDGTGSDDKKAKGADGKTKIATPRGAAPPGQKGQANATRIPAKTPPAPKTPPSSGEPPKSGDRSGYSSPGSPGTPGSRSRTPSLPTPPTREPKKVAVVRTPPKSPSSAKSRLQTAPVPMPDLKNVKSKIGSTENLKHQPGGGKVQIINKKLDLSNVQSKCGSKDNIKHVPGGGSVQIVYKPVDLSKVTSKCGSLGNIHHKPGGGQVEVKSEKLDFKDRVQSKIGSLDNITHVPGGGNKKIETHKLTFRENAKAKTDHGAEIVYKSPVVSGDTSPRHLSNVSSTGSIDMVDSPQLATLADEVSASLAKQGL
Pick's bodies in the dentate gyrus of FTD (Pick's disease) brain sections (P10636, form named): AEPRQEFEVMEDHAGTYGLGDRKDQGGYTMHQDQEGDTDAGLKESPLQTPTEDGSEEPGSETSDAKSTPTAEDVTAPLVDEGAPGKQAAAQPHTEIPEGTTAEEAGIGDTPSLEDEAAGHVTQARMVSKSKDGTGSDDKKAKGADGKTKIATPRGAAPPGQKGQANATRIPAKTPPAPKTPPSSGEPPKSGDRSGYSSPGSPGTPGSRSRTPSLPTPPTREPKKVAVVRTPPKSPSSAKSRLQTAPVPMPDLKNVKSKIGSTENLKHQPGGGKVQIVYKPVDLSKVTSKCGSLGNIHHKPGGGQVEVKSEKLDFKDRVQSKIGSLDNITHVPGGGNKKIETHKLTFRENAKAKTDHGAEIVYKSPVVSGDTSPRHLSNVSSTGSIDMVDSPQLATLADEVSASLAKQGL
fetal rat tau (P19332, form named): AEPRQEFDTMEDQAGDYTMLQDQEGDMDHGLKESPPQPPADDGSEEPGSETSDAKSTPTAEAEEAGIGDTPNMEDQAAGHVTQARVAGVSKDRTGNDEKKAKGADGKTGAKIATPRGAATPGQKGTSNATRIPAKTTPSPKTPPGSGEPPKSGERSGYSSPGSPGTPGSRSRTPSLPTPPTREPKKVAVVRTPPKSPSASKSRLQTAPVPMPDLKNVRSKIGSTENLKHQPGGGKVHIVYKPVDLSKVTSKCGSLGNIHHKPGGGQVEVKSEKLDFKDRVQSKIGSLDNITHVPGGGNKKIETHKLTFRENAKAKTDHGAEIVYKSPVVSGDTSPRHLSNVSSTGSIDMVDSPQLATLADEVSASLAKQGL

What was measured:
[1] = biological target: sarcosyl-insoluble tau isolated from human Alzheimer's disease brain tissue (PHF-tau) (human) (UniProt P10636); assay: immunoblot (summary of Example 8)
fetal rat tau (rat) [2] = biological target: fetal rat tau (rat) (UniProt P19332); assay: immunoblot (summary of Example 8)
[3] = biological target: insoluble tau complexes isolated from FTD brain (human) (UniProt P10636); assay: immunoblot of sarkosyl-insoluble tau
[4] = biological target: insoluble tau complexes isolated from corticobasal degeneration brain (human) (UniProt P10636); assay: immunoblot of sarkosyl-insoluble tau
[5] = biological target: sarcosyl-insoluble tau isolated from human Alzheimer's disease brain tissue (PHF-tau) (human) (UniProt P10636); assay: immunoblot of sarkosyl-insoluble tau
[6] = biological target: glial tau pathology in putamen/caudate nucleus of progressive supranuclear palsy (PSP) brain sections (human) (UniProt P10636); assay: immunohistochemistry on paraffin brain sections
[7] = biological target: Pick's bodies in the dentate gyrus of FTD (Pick's disease) brain sections (human) (UniProt P10636); assay: immunohistochemistry on paraffin brain sections
[8] = biological target: glial tau pathology in caudate nucleus of corticobasal degeneration (CBD) brain sections (human) (UniProt P10636); assay: immunohistochemistry on paraffin brain sections
[9] = biological target: tau pathology in Alzheimer's disease brain sections (neurofibrillary tangles, neuropil threads, neuritic plaques) (human) (UniProt P10636); assay: immunohistochemistry on paraffin brain sections
[10] = biological target: sarcosyl-insoluble tau isolated from human Alzheimer's disease brain tissue (PHF-tau) (human) (UniProt P10636); assay: ELISA screen of hybridoma supernatants on coated PHF-tau
[11] = biological target: sarcosyl-insoluble tau isolated from human Alzheimer's disease brain tissue (PHF-tau) (human) (UniProt P10636); assay: immunoblot
fetal rat tau (rat) [12] = biological target: fetal rat tau (rat) (UniProt P19332); assay: immunoblot

Measured: binding

B1: monoclonal antibody DC2E7 (antibody, V domains shown)
VH: DVQLVESGGGLVQPGGSRKLSCAASGFTFSSFGMHWVRQAPEKGLEWVAYISGDSNTIYYADTVKGRFTISRDNPKNTLFLQMTSLRSEDTAIYYCARTLAYWGQGTLVTVS
VL: DIQMTQSSSSFSVSLGDRVTITCKASEDIYNRLAWYQQTPGNAPSLLISGASGLETGVPSRFSGSGSGRDYTLSITSLQTEDVATYYCLQYWSIPWTFGGGTKLEIKR
binds: all assays above
